Experimental data reported in PMC10250230, “Negatively charged, intrinsically disordered regions can accelerate target search by DNA-binding proteins”.

Chains of the proteins cited; added tags and fusions are not shown. Lines headed by an entry give the natural chain unless they say otherwise; changes in a name come on top.
UniProt P02833: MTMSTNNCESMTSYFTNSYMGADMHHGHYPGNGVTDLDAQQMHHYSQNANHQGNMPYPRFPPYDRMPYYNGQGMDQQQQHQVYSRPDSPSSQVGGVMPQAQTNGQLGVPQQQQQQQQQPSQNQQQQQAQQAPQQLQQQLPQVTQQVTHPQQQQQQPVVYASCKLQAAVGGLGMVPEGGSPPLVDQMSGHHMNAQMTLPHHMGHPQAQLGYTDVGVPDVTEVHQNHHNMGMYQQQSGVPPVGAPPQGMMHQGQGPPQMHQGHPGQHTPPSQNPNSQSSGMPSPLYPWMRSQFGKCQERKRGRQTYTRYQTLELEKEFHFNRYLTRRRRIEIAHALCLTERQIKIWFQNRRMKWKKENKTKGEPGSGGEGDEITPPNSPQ

Experiments:
Assay in all cases: stopped-flow fluorescence anisotropy
[1] = biological target: Antp HD-DERT11 (UniProt P02833); conditions: 4 uM 15-bp decoy DNA, association faster than Antp HD; Antp Kd: 20 mM potassium succinate pH 5.8, 0.4 mM NaF, 200 mM KCl; HMGB1: 10 mM K phosphate pH 7.5, 1 mM DTT, 1 mM MgCl2, 100 mM KCl, 25 C; recombinant protein; label: 5' FAM
[2] = biological target: Antp HD-DERT16 (UniProt P02833); conditions: 4 uM 15-bp decoy DNA, association slower than Antp HD; Antp Kd: 20 mM potassium succinate pH 5.8, 0.4 mM NaF, 200 mM KCl; HMGB1: 10 mM K phosphate pH 7.5, 1 mM DTT, 1 mM MgCl2, 100 mM KCl, 25 C; recombinant protein; label: 5' FAM
[3] = biological target: Antp HD (control without DERT; Antp HD-MID) (UniProt P02833); conditions: 4 uM 15-bp decoy DNA; Antp Kd: 20 mM potassium succinate pH 5.8, 0.4 mM NaF, 200 mM KCl; HMGB1: 10 mM K phosphate pH 7.5, 1 mM DTT, 1 mM MgCl2, 100 mM KCl …; recombinant protein; label: 5' FAM
[4] = biological target: Antp HD-DERT7 (UniProt P02833); conditions: 4 uM 15-bp decoy DNA, association faster than Antp HD; Antp Kd: 20 mM potassium succinate pH 5.8, 0.4 mM NaF, 200 mM KCl; HMGB1: 10 mM K phosphate pH 7.5, 1 mM DTT, 1 mM MgCl2, 100 mM KCl, 25 C; recombinant protein; label: 5' FAM

Measured: binding result

AGCCATTACAGTGTACGCACGTACGGTGCACGA (double strand) [FAM-labeled 33-bp Antp target DNA]
binds: all assays above

Construct, isoform or probe ends are uncertain for at least one entry.
